PubChem BioAssay AID743454 | Peter MacCallum Cancer Centre, 2014
Shown is an unselected part of about 18,000 reagents. 450 of them (2.5%) were called active. 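Single biological run; no consistent viability z cut-off exists, so the class columns, not z-scores, define the calls.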

- Assay: 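Knock-downs lowering viability or raising caspase 3/7 activity in vorinostat-treated resistant cells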 (primary screen)
- Cell system: human HCT116-VR colon cancer cells, selected for vorinostat resistance
- Knock-down reagent: siRNA pool against human genes, 40 nM siRNA pool
- Timing: vorinostat for 24 h, read-out about 72 h after transfection
- Challenge: vorinostat at 2.5 µM final
- Measurement: 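Two measures, CellTiter-Fluor viability and luminescent caspase 3/7 activity, each as fold change against same-plate mock wells, mean of duplicates, then screen-wide robust z-score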
- Direction: viability robust z-score: higher = more viable cells than screen typical; caspase robust z-score: higher = more caspase 3/7 activity than screen typical
- Rule for the call: 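a knock-down is a hit when classed RV1 or RV2 for lowered viability, or CA1 or CA2 for caspase activation; those lethal without drug were dropped; hits were retested singly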

What did the screen give for RPS2?
viability hit class: no change; caspase hit class: no change; viability robust z-score: -3.84; caspase robust z-score: -1.21; Call: inactive

Which result is listed for ACTA1?
viability hit class: no change; caspase hit class: no change; viability robust z-score: 0.58; caspase robust z-score: 0.3; Call: inactive

What did the screen give for TMEM126A?
viability hit class: no change; caspase hit class: no change; viability robust z-score: -0.4; caspase robust z-score: -0.66; Call: inactive

For ZFAND5, how do the results read?
viability hit class: no change; caspase hit class: CA2 (caspase activation); viability robust z-score: -2.52; caspase robust z-score: 10.4; Call: active

How did the screen score GOLGA4?
viability hit class: no change; caspase hit class: no change; viability robust z-score: 0.14; caspase robust z-score: -0.92; Call: inactive

With FOXS1, what does the deposit list?
viability hit class: no change; caspase hit class: no change; viability robust z-score: -0.85; caspase robust z-score: 1.85; Call: inactive

For UBE2U, how do the results read?
viability hit class: no change; caspase hit class: no change; viability robust z-score: 1.77; caspase robust z-score: -0.4; Call: inactive

What is on record for CCDC148?
viability hit class: no change; caspase hit class: no change; viability robust z-score: 2.02; caspase robust z-score: -0.5; Call: inactive

What is on record for WNT7B?
viability hit class: no change; caspase hit class: no change; viability robust z-score: -1.8; caspase robust z-score: 4.13; Call: inactive

What is on record for PEX7?
viability hit class: no change; caspase hit class: no change; viability robust z-score: 0.8; caspase robust z-score: 0.48; Call: inactive

With CD22, what does the deposit list?
viability hit class: no change; caspase hit class: no change; viability robust z-score: 0.16; caspase robust z-score: 1.15; Call: inactive

With ITGA9, how do the results read?
viability hit class: no change; caspase hit class: no change; viability robust z-score: 1.24; caspase robust z-score: 0.31; Call: inactive

With SERPINB10, how do the results read?
viability hit class: no change; caspase hit class: no change; viability robust z-score: -0.45; caspase robust z-score: -0.65; Call: inactive

What did the screen give for RSPH14?
viability hit class: no change; caspase hit class: no change; viability robust z-score: 0.15; caspase robust z-score: -0.24; Call: inactive

How did the screen score SLC24A5?
viability hit class: no change; caspase hit class: no change; viability robust z-score: -0.9; caspase robust z-score: 0.09; Call: inactive

What is on record for TRIM52?
viability hit class: no change; caspase hit class: no change; viability robust z-score: -0.36; caspase robust z-score: 1.38; Call: inactive

What is on record for CFAP95?
viability hit class: no change; caspase hit class: no change; viability robust z-score: -1.72; caspase robust z-score: 0.08; Call: inactive

For TEX14, what was measured?
viability hit class: no change; caspase hit class: no change; viability robust z-score: -0.38; caspase robust z-score: 1.14; Call: inactive

What did the screen give for TMEM107?
viability hit class: no change; caspase hit class: no change; viability robust z-score: -2.08; caspase robust z-score: 1.47; Call: inactive

With TACC2, how do the results read?
viability hit class: no change; caspase hit class: no change; viability robust z-score: -0.44; caspase robust z-score: -0.06; Call: inactive

For TAB1, what does the deposit list?
viability hit class: no change; caspase hit class: no change; viability robust z-score: 1.1; caspase robust z-score: -0.43; Call: inactive

Ordered by “viability robust z-score” (high to low): some entries from above.
GOLGA4 — viability hit class: no change; caspase hit class: no change; viability robust z-score: 0.14; caspase robust z-score: -0.92; Call: inactive
TMEM126A — viability hit class: no change; caspase hit class: no change; viability robust z-score: -0.4; caspase robust z-score: -0.66; Call: inactive
ZFAND5 — viability hit class: no change; caspase hit class: CA2 (caspase activation); viability robust z-score: -2.52; caspase robust z-score: 10.4; Call: active
